# Assay results: PubChem BioAssay AID2685 (National Center for Advancing Translational Sciences (NCATS), 2010)
# Some of the results follow. Further columns of the screen follow, without active or inactive calls. Compounds called inactive in the main read-out are mostly missing here. The note in brackets gives the kind of curve behind each potency; many fits are weak.
# Experiment: qHTS Assay for Lipid Storage Modulators in Drosophila S3 Cells;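 as to cell number change: cells counted by Cell Tracker Red CMTPX staining in the red channel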
# Details: BODIPY lipid droplet fluorescence, 18-24 h; for cell number change: measured here: cell count max response, cells fed with added oleic acid
# How it was run: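 Drosophila S3 cells loaded with oleic acid (400 uM, as added) and compounds at several concentrations; lipid droplets imaged by 488-nm laser-scanning cytometry, 500–530 nm intensity and object ratio to cell channel. Percent activity normalized to 20 uM Triacsin C.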
# [1] = measured here: cell number channel AC50, cells fed with added oleic acid
# [2] = measured here: lipid fluorescence (Fed channel) AC50, cells fed with added oleic acid
Structure (SMILES),cell number change [%],AC50 [1],AC50 [2]
Cn1c2ccsc2c2ncn(Cc3ccccc3F)c(=O)c21,36.6,"16.4 µM [rising, single point]","29.1 µM [rising, single point]"
CN(Cc1nccn1C)C(=O)CC1C(=O)NCCN1CC(c1ccccc1)c1ccccc1 (centres undefined),-21.3,–,"29.1 µM [falling, single point]"
CC(NC(=O)c1cc(=O)[nH]c2ccccc12)c1ccccc1 (centres undefined),2.82,–,"1.16 µM [falling, partial curve]"
CCC(NC(=O)CCc1c(C)c2cc3c4c(oc3cc2oc1=O)CCCC4)C(=O)O (centres undefined),19.7,–,–
COc1ccc(NC(=O)N2CCC(n3cnc4ccccc43)CC2)cc1,-22.2,–,"20.6 µM [falling, single point]"
Cn1nnnc1SCc1csc(Nc2ccccc2)n1,4.07,–,"0.731 µM [rising, full curve, poor fit]"
CC(=O)C(Sc1ccc2nnc(-c3ccc(F)cc3)n2n1)C(C)=O,36.9,"8.2 µM [rising, single point]",–
O=C(OCCOCCN=C1NS(=O)(=O)c2ccccc21)C1CC(=O)N(c2ccccc2)C1 (centres undefined),–,–,"20.6 µM [falling, single point]"
Cc1nn(CC(=O)Nc2ccc(Br)cc2F)c(=O)c2cccn12,14.5,–,"0.58 µM [rising, single point]"
CCC(CC)C(=O)N=C1SC2CS(=O)(=O)CC2N1CCc1ccc(OC)c(OC)c1 (centres undefined),26.8,–,"20.6 µM [rising, partial curve]"
COc1ccc(NC(=O)CN2CCC3(O)CCCCC3C2c2cc(OC)ccc2OC)cc1 (centres undefined),-6.63,–,"29.1 µM [rising, single point]"
COc1cc(C(Nc2ccccn2)c2c(NC(=O)c3ccco3)sc(C)c2C)cc(OC)c1OC (centres undefined),-1.57,–,"13 µM [rising, single point]"
COc1ccc(CNC(=O)COC(=O)c2cccc(S(=O)(=O)N3CCOCC3)c2)cc1,6.88,–,"14.6 µM [rising, partial curve, poor fit]"
CCOc1ccc(/C(O)=C2/C(=O)C(=O)N(CC3CCCO3)C2c2cccs2)cc1 (centres undefined),-31.5,"32.6 µM [falling, partial curve, poor fit]","0.184 µM [falling, full curve, poor fit]"
O=c1cc(C(F)(F)F)nc(-c2cccnc2)[nH]1,7.58,–,"0.13 µM [falling, full curve, poor fit]"
O=C(c1ccc(Br)cc1)c1cc(-c2ccccn2)c(N2CCOCC2)s1,15.4,–,"0.164 µM [rising, full curve]"
Cc1cc(NC(=O)Nc2ccccc2)n(-c2ccccc2)n1,-19.5,–,"23.1 µM [falling, partial curve]"
Cc1ccc(S(=O)(=O)NC(CC(=O)NCC2CCCO2)c2ccco2)cc1 (centres undefined),-0.94,–,"20.6 µM [falling, partial curve]"
O=C(CSc1nnc(COc2ccccc2)n1-c1ccccc1)c1cccs1,-7.7,–,–
CC(=O)CC(c1ccccc1)c1c(O)c2ccccc2oc1=O (centres undefined),5.78,–,"0.58 µM [falling, full curve, poor fit]"

Structure (SMILES),cell number change [%],AC50 [1],AC50 [2]
CC(C)(C)N(Cc1ccccc1)C(=O)COC(=O)CN1C(=O)NC2(CCCC2)C1=O,-23.8,–,"29.1 µM [rising, single point]"
Cc1ccc2c(c1)C(c1ccccc1)N(C(=O)C(C)C)CC(=O)N2 (centres undefined),–,"2.31 µM [rising, partial curve, poor fit]","0.164 µM [rising, full curve, poor fit]"
CC(C)(C)NC(=O)CSc1nc2[nH]ncc2c(=O)[nH]1,-19.7,–,"0.0058 µM [falling, full curve, poor fit]"
CC1=C/C(=C(\c2cc(C)c(O)c(Br)c2)c2ccccc2S(=O)(=O)O)C=C(Br)C1=O,-10.1,–,"0.00517 µM [rising, full curve, poor fit]"
N/C(=N\OC(=O)c1ccc(Cl)cc1)c1[nH]ncc1Br,13.4,–,"16.4 µM [falling, partial curve]"
CNC(=O)c1ccc(-c2sc3nc(N4CCOCC4)c4c(c3c2N)CC(C)(C)OC4)o1,-17,–,"6.51 µM [falling, single point]"
Clc1cc(Br)ccc1OCCCNCc1ccccc1,-34.2,"32.6 µM [falling, single point]",–
O=C(COC(=O)/C=C/c1ccccc1)NC1CCCCCC1,-1.08,"6.51 µM [falling, single point]","6.51 µM [falling, single point]"
CC(=O)Nc1ccc(NC(=O)COc2ccc(Cl)cc2Cl)cc1,–,–,"29.1 µM [rising, single point]"
O=C(Oc1ccc2ccccc2c1)C1CCC1,-8.07,–,–
COc1cccc(C2C(C#N)=C(N)N(N(C)C)C3=C2C(=O)CC(C)(C)C3)c1 (centres undefined),–,–,"0.731 µM [rising, full curve, poor fit]"
C/C(=N\NC(=O)c1c(Cl)c(C)nn1C)c1cccc(NC(=O)C2CCCC2)c1,-51.5,"32.6 µM [falling, single point]","29.1 µM [falling, single point]"
N#C/C(=C/Nc1ccccc1)c1ccsc1,–,"0.731 µM [rising, single point]",–
Cc1ccccc1NC(=O)c1ccc2snnc2c1,–,"0.517 µM [rising, partial curve, poor fit]","0.231 µM [rising, partial curve, poor fit]"
COC(=O)c1c(NC(=O)CN2CCN(C(=O)c3ccco3)CC2)c2cc(C)ccc2n1C,-16.2,–,"29.1 µM [falling, single point]"
COC(=O)c1nnc(-c2ccccc2)c(-c2ccccc2)n1,9.98,–,"0.0517 µM [falling, partial curve]"
CCOC(=O)Cc1csc(SCc2nc3sc4c(c3c(=O)[nH]2)CCC4)n1,6.11,"0.651 µM [falling, single point]","0.651 µM [falling, full curve]"
C/C=C/C(=O)Nc1cccc(C2=NOC3(C2)C[C@@H](C(N)=O)N(C(=O)/C(C)=C/C)C3)c1 (some centres undefined),20.6,–,"29.1 µM [rising, single point]"
COc1ccc(Cl)cc1NC(=S)Nc1ccccc1F,147,"29.1 µM [rising, partial curve, poor fit]",–
C1CCN(c2nc3nonc3nc2NCC2CCOCC2)CC1,9.25,–,"0.231 µM [falling, full curve]"

Structure (SMILES),cell number change [%],AC50 [1],AC50 [2]
O=C(Cn1ncc2c3ccccc3n(Cc3cccc(Cl)c3)c2c1=O)NCc1ccccn1,19.8,–,"29.1 µM [rising, single point]"
CC1CCCC(C)N1C(=O)c1cc(-c2ccc3c(c2)OCO3)on1 (centres undefined),-6.67,–,–
Cc1cc(Br)ccc1NC(=O)CN1C(=S)NC(C)(C)CC1C (centres undefined),30.5,"6.51 µM [rising, single point]",–
Cn1cccc1/C=N/N1CCN(Cc2ccccc2)CC1,29.9,–,"13 µM [rising, partial curve]"
O=C(CSc1nc2ccccc2s1)NNC(=S)Nc1ccccc1,-12,"6.51 µM [rising, single point]","6.51 µM [rising, partial curve]"
O=C(NCCc1ccccc1)c1ccc2nc(N3CCOCC3)sc2c1,-2.1,–,–
CCOc1ccc(OCC)c(NC(=O)C2CCCN2S(=O)(=O)c2cccc3cccnc23)c1 (centres undefined),-9.21,–,"0.82 µM [rising, partial curve]"
CCS(=O)(=O)c1ncc(Cl)c(C(=O)Nc2ccccc2OC)n1,-32.3,"0.82 µM [falling, full curve]","1.64 µM [falling, full curve]"
O=C(c1ccccc1Cc1ccccc1)N1CCN(S(=O)(=O)c2ccccc2)CC1,-19.3,–,"11.6 µM [falling, single point]"
CCO[C@@H]1OC(C(=O)N2CCN(C)CC2)=C[C@H](C(C)(C)C)[C@H]1CCCO,1.02,–,"0.0517 µM [falling, full curve, poor fit]"
NC(=O)c1ccc2c(=O)n3c(-c4cccs4)csc3nc2c1,15.3,–,"13 µM [rising, partial curve, poor fit]"
Cc1ccnc(N(C(=O)c2cccs2)C(=O)c2cccs2)c1,–,–,"16.4 µM [rising, partial curve]"
CCCCn1c(=O)n(CC(O)c2ccccc2)c(=O)c2c1ncn2C1CCCC1 (centres undefined),-22.8,–,"0.0291 µM [rising, full curve, poor fit]"
CC(=O)Nc1ccc(C(=O)n2cnc3cc(C)c(C)cc32)cc1,-90.6,"29.1 µM [falling, single point]",–
CC1CCCCN1CCCNC(=O)C1CCCN(c2ncnc3c2nc2n3CCCCC2)C1 (centres undefined),35.5,"32.6 µM [rising, single point]","29.1 µM [falling, single point]"
Cc1cc(C(=O)OCC(=O)Nc2ccccc2)c(C)o1,–,–,"23.1 µM [rising, single point]"
COc1cc2c(cc1OC)C(C)N(CC(=O)Nc1ccc(C)c(S(=O)(=O)N3CCOCC3)c1)CC2 (centres undefined),-7.16,–,"0.58 µM [falling, single point]"
CCCCC1CC(/C(C)=N/NC(N)=O)OC1=O (centres undefined),-32.5,"0.0731 µM [falling, full curve, poor fit]","0.0164 µM [falling, full curve, poor fit]"

# A second format for 2 compounds above.
Structure (SMILES) | cell number change [%] | AC50 [1] | AC50 [2]
Cc1cc(C(=O)OCC(=O)Nc2ccccc2)c(C)o1 | – | – | 23.1 µM [rising, single point]
COc1cc2c(cc1OC)C(C)N(CC(=O)Nc1ccc(C)c(S(=O)(=O)N3CCOCC3)c1)CC2 (centres undefined) | -7.16 | – | 0.58 µM [falling, single point]
